Measurements: the supplement of paper PMC10849652
The list shows a part of the results.

Sequences of proteins named here, by UniProt entry; tags and fusion partners are left off. A change or cut given only in a name is not applied to a line headed by its entry.
UniProt Q02833: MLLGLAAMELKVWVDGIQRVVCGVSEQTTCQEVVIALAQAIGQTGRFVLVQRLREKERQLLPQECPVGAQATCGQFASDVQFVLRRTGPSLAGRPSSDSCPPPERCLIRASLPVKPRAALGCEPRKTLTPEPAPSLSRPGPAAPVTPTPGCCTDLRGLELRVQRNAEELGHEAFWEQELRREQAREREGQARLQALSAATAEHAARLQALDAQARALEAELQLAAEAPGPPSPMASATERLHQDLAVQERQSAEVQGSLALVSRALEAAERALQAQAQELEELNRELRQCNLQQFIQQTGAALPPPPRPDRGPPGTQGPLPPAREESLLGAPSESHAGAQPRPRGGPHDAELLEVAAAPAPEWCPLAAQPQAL
UniProt Q8TEB9: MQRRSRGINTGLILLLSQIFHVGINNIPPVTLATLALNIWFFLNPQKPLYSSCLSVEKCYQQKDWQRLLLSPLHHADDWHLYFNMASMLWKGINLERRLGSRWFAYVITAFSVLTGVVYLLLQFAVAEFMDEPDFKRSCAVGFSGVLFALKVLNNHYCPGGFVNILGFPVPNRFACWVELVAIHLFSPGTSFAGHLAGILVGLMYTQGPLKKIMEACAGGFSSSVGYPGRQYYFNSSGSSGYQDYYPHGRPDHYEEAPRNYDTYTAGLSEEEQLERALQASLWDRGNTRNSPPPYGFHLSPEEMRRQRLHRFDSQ
UniProt Q9HCJ3: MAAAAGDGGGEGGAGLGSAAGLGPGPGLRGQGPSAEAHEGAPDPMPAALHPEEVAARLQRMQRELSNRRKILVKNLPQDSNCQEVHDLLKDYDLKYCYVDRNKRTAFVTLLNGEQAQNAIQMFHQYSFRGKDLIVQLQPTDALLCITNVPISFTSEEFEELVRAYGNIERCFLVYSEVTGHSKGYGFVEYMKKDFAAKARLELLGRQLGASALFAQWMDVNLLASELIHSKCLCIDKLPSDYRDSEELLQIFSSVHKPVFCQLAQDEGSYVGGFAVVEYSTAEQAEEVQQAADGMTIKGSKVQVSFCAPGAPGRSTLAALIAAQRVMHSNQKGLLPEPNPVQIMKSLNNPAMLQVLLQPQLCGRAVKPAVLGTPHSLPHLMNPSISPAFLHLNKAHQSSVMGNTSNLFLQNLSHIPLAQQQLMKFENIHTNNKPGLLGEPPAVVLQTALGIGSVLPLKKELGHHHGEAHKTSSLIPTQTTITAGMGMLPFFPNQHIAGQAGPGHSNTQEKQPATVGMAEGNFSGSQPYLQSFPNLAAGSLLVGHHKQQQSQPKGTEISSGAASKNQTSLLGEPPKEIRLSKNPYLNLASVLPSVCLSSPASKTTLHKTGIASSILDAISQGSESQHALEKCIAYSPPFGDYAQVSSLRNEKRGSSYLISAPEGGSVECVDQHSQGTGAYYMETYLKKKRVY
UniProt Q8IXT5: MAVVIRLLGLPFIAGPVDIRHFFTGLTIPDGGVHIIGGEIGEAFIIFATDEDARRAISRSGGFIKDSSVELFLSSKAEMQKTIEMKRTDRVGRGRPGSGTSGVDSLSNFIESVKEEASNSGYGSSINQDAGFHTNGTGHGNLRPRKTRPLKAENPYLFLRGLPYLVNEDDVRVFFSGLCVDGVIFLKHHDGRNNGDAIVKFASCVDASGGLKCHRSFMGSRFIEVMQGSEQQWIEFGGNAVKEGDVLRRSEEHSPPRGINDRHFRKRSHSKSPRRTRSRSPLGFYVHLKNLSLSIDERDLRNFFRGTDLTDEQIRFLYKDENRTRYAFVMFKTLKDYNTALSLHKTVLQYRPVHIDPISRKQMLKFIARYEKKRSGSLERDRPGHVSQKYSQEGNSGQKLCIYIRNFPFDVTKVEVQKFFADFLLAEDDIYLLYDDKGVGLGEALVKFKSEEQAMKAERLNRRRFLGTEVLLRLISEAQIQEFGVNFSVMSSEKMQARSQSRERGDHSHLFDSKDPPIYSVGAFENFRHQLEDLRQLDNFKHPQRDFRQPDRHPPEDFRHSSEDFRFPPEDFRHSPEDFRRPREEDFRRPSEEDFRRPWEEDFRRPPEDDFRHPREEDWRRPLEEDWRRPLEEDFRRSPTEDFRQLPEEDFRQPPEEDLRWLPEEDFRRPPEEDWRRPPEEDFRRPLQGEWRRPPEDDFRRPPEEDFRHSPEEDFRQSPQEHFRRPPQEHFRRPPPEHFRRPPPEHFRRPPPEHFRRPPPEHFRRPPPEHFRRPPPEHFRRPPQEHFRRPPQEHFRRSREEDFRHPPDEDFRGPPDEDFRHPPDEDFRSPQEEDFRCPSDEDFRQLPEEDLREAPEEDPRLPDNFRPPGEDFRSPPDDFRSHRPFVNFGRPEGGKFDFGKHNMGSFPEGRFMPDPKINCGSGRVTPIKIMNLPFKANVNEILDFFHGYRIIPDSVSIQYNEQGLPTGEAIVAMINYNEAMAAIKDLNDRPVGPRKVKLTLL
UniProt Q02161: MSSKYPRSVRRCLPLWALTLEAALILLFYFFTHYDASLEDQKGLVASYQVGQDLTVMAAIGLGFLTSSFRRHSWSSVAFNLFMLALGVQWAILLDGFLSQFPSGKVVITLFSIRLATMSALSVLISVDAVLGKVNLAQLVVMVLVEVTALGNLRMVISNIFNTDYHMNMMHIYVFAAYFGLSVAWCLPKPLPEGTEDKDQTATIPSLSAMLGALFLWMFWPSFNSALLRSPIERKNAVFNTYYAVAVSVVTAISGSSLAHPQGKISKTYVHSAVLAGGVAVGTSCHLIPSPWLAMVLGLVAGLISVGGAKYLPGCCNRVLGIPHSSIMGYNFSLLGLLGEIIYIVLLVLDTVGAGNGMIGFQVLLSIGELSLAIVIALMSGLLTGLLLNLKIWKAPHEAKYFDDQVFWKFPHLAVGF
UniProt Q9H477: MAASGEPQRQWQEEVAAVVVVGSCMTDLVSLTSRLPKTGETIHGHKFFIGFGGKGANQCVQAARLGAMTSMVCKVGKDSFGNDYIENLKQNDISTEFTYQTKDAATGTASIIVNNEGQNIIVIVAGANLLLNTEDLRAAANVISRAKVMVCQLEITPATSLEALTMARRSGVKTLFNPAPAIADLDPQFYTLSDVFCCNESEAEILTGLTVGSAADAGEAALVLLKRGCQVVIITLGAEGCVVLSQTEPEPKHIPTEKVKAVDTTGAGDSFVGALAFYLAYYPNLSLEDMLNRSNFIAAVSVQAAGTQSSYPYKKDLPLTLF
UniProt A6NEQ0: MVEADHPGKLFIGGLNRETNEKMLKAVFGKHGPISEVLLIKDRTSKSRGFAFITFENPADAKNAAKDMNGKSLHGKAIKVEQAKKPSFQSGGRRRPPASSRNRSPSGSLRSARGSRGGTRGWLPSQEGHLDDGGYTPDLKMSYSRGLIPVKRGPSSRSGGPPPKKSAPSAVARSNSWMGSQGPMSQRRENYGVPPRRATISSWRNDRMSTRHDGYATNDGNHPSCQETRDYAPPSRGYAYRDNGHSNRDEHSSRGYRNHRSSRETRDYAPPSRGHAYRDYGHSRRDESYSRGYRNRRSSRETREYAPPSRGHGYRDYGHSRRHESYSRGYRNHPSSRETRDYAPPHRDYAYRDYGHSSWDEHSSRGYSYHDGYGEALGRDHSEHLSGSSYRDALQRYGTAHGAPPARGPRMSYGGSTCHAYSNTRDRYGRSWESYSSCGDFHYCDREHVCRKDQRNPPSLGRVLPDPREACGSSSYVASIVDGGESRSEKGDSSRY
UniProt P49796: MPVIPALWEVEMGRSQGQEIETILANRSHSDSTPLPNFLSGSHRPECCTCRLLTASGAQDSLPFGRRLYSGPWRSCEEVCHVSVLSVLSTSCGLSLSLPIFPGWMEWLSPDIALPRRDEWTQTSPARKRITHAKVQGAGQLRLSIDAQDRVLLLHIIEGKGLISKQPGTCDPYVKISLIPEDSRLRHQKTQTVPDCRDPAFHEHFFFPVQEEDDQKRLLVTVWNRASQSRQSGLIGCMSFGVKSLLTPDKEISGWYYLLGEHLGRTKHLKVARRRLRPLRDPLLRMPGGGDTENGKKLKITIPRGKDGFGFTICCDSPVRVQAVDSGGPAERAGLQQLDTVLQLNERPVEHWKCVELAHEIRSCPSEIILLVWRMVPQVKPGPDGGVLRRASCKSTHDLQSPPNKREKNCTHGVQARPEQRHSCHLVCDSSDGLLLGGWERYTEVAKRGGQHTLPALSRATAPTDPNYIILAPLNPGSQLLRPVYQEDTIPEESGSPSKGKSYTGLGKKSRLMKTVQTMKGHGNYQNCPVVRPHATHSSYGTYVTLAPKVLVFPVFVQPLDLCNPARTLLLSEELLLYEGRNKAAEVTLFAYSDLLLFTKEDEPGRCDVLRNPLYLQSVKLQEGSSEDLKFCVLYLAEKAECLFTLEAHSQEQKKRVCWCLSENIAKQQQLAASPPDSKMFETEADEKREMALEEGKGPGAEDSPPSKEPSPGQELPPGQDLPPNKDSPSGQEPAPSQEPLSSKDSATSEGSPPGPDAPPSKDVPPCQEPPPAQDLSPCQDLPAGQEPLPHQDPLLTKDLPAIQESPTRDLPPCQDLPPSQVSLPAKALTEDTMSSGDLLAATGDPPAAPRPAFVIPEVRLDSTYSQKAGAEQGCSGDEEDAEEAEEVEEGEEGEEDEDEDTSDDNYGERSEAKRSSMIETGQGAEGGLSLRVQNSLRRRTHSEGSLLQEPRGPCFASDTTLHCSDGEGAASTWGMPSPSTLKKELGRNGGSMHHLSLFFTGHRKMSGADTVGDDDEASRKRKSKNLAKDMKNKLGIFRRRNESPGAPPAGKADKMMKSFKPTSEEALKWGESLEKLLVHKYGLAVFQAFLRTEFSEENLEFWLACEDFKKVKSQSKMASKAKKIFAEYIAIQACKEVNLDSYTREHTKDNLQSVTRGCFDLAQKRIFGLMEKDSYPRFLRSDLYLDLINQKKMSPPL
UniProt Q9P260: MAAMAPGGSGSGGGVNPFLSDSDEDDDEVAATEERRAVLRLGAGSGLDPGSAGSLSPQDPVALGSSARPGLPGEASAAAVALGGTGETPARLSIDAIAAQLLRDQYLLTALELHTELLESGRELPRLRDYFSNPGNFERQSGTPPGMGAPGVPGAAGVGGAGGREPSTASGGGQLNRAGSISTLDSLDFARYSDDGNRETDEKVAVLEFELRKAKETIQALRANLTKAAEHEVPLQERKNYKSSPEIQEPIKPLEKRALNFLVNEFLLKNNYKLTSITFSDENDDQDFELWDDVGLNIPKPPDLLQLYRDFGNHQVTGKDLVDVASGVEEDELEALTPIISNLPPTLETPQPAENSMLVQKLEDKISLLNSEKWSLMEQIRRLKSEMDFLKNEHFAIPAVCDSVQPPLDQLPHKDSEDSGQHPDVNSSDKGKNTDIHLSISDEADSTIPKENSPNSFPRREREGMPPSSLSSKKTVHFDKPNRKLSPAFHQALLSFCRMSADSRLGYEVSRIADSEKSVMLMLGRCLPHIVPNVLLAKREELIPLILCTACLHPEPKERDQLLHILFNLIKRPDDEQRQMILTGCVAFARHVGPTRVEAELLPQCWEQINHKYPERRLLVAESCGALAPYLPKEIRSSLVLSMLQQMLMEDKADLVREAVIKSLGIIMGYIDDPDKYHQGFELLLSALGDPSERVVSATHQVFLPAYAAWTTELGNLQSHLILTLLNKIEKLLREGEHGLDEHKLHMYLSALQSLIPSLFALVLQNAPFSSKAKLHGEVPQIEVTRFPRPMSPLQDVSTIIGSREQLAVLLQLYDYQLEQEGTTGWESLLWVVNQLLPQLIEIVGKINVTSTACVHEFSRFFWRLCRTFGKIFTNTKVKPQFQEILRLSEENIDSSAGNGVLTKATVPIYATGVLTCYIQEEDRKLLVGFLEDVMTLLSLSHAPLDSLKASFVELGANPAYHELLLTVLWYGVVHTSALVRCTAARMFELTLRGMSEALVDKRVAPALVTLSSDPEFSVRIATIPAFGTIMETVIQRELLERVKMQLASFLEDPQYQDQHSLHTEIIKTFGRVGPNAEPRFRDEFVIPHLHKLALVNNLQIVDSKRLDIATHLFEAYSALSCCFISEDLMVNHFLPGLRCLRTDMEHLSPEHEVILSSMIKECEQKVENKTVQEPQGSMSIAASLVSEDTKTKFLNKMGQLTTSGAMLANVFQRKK
UniProt Q96EN9: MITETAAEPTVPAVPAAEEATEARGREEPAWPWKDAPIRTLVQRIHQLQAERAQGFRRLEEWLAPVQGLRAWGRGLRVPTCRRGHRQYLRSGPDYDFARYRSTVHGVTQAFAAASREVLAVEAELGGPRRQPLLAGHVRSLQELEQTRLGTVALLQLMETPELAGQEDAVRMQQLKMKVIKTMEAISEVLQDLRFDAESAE
UniProt Q9Y388: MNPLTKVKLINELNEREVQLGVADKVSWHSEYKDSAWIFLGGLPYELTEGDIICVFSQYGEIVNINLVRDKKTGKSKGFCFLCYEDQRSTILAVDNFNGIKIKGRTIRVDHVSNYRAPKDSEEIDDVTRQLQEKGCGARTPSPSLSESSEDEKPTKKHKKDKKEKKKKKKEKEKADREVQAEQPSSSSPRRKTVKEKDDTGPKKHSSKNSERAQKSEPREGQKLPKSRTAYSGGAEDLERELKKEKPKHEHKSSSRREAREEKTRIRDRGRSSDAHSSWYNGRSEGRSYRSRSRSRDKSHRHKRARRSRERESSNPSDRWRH

Assays:
Assay in all cases: log2 fold change, soluble protein after heating vs DMSO (PISA); higher = thermal stabilisation; K562 lysate, 10 uM; active = over 0.2 and 3.5 SD of the protein, either way, in both replicates (recomputed)
[1] = compound: C1=CC2=NC=CN=C2C=C1/C=C/3\C(=O)NC(=O)S3
Method in brief: (§1)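 Values give the log-two fold change in thermal stability against solvent controls, from duplicates. Crude K562 extract at 1 mg/mL protein, made by dounce homogenisation in PBS pH 7.4 with 1 mM MgCl2, was treated with 10 μM compound for 30 min. After 3 min heating across 48°C-58°C, aliquots were pooled, adjusted to 0.5% NP-40 at 4°C and centrifuged at 21,000xg for 90 min. The supernatant was measured by TMTpro 16plex LC-MS/MS with channel sums equalised.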

erlotinib = compound: C#Cc1cccc(Nc2ncnc3cc(OCCOC)c(OCCOC)cc23)c1 [erlotinib]
Method in brief: as §1

[2] = compound: C1=CC(=CC=C1C2=NC3=C(N2)C=C(C=C3)C(=O)N)OC4=CC=C(C=C4)Cl
Method in brief: as §1

[3] = compound: C1=CC=C(C=C1)C2=NC(=C(N2)C3=CC=NC=C3)C4=CC(=C(C=C4)Cl)O
Method in brief: as §1

IRAK-1-4 Inhibitor I = compound: C1COCCN1CCN2C3=CC=CC=C3N=C2NC(=O)C4=CC(=CC=C4)[N+](=O)[O-] [IRAK-1-4 Inhibitor I]
Method in brief: as §1

[4] = compound: C1CCN(C1)C(=O)NC2=CC=CC(=C2)NC3=NC=C(C(=N3)NCCC4=CN=CN4)Br
Method in brief: as §1

[5] = compound: C1CN(CCC1(CC2=CC=C(C=C2)Cl)N)C3=NC=NC4=C3C=CN4
Method in brief: as §1

[6] = compound: C/C(=N\NC(=O)C1=CC(=CC=C1)S(=O)(=O)N2CCOCC2)/C3=C(C=CC(=C3)Cl)O
Method in brief: as §1

[7] = compound: C1=CC2=C(C=CC(=C2)/C=C\3/C(=O)NC(=NCC4=CC=CS4)S3)N=C1
Method in brief: as §1

[8] = compound: C1=CC=C2C(=C1)C3=NNC4=CC=CC(=C43)C2=O
Method in brief: as §1

Measured: log2 fold change

RASSF7 (UniProt Q02833)
inactive: [1] 0.124

REXO1 (UniProt Q8N1G1)
inactive: erlotinib -0.154 | [2] -0.03 | [1] -0.004 | [3] 0.039 | IRAK-1-4 Inhibitor I -0.007

RELL1 (UniProt Q8IUW5)
inactive: erlotinib 0.228 | [2] 0.011

RFX3 (UniProt P48380)
inactive: [1] -0.133 | [4] -0.051 | [5] 0.001

RC3H2 (UniProt Q9HBD1)
inactive: [6] -0.033 | [7] 0.126 | [3] -0.101 | [8] -0.052 | [4] -0.203 | [5] -0.315 | IRAK-1-4 Inhibitor I 0.024

RCOR2 (UniProt Q8IZ40)
inactive: [3] 0.014 | IRAK-1-4 Inhibitor I 0.049

RBFOX2 isoform 8 (UniProt O43251)
inactive: erlotinib -0.052 | [2] -0.184 | [1] 0.106 | [3] -0.168 | [4] -0.028 | [5] -0.182 | IRAK-1-4 Inhibitor I 0.089

RHBDD1 (UniProt Q8TEB9)
inactive: [6] -0.476 | [7] 0.19 | [1] 0.337 | [8] -0.056 | [4] -0.093 | [5] 0.159

RAVER2 (UniProt Q9HCJ3)
inactive: erlotinib -0.208 | [2] 0.07 | [3] 0.031 | [4] 0.248 | [5] -0.142 | IRAK-1-4 Inhibitor I 0.056

RBM12B (UniProt Q8IXT5)
inactive: [1] 0.22 | [3] -0.019 | IRAK-1-4 Inhibitor I -0.209

RBM47
inactive: erlotinib 0.351 | [6] 0.143 | [2] 0.283 | [7] 0.142 | [3] -0.248 | [8] -0.155 | IRAK-1-4 Inhibitor I 0.007

RBP4 (UniProt P02753)
inactive: [1] -0.007

RFX2 (UniProt P48378)
inactive: [1] 0.208

RBM38 (UniProt Q9H0Z9)
inactive: erlotinib -0.035 | [6] 0.031 | [2] 0.04 | [7] -0.01 | [3] -0.197 | [8] 0.037 | [4] -0.028 | [5] 0.095 | IRAK-1-4 Inhibitor I 0.056

RHD (UniProt Q02161)
inactive: [3] -0.036 | IRAK-1-4 Inhibitor I 0.181

RBKS (UniProt Q9H477)
inactive: [3] 0.194 | IRAK-1-4 Inhibitor I 0.136

RBMY1E (UniProt A6NEQ0)
inactive: [6] -0.027 | [7] -0.154 | [1] -0.01 | [8] -0.061 | [4] -0.04 | [5] 0.024

RHBDD2 isoform 2 (UniProt Q6NTF9)
inactive: erlotinib -0.025 | [2] -0.295 | [3] -0.016 | IRAK-1-4 Inhibitor I -0.043

Taken from the listing (2 entries):
RBM38 (UniProt Q9H0Z9)
inactive: erlotinib -0.035 | [6] 0.031 | [2] 0.04 | [7] -0.01 | [3] -0.197 | [8] 0.037 | [4] -0.028 | [5] 0.095 | IRAK-1-4 Inhibitor I 0.056

RHD (UniProt Q02161)
inactive: [3] -0.036 | IRAK-1-4 Inhibitor I 0.181

Carrying on:

REST (UniProt Q13127)
inactive: erlotinib 0.111 | [6] 0.041 | [2] 0.004 | [7] 0.1 | [3] 0.05 | [8] -0.104 | IRAK-1-4 Inhibitor I 0.013

RGS3 (UniProt P49796)
inactive: erlotinib 0.035 | [2] 0.027 | [1] -0.006 | [3] -0.186 | IRAK-1-4 Inhibitor I -0.044

RGL2 (UniProt O15211)
inactive: erlotinib -0.306 | [2] -0.034 | [3] 0.036 | IRAK-1-4 Inhibitor I 0.044

RGCC (UniProt Q9H4X1)
inactive: erlotinib -0.108 | [6] 0.188 | [2] -0.096 | [7] -0.118 | [3] -0.013 | [8] 0.009 | IRAK-1-4 Inhibitor I 0.125

RCBTB1 (UniProt Q8NDN9)
inactive: erlotinib -0.102 | [2] 0.099 | [3] 0 | IRAK-1-4 Inhibitor I 0.142

RELCH (UniProt Q9P260)
inactive: [6] 0.173 | [7] 0.054 | [8] -0.156

RBFA (UniProt Q8N0V3)
inactive: erlotinib -0.014 | [2] 0.008 | [3] -0.158 | IRAK-1-4 Inhibitor I -0.018

RESF1 (UniProt Q9HCM1)
inactive: [3] -0.006 | [4] -0.107 | [5] 0.061 | IRAK-1-4 Inhibitor I 0.077

REX1BD (UniProt Q96EN9)
inactive: erlotinib 0.074 | [2] -0.06 | [3] -0.061 | [4] -0.176 | [5] -0.044 | IRAK-1-4 Inhibitor I 0.103

RBBP4 isoform 4 (UniProt Q09028)
inactive: [3] 0.292 | IRAK-1-4 Inhibitor I -0.066

RBBP4 isoform 2 (UniProt Q09028)
inactive: [1] -0.084

RELA (UniProt Q04206)
inactive: [6] -0.033 | [2] 0 | [7] -0.02 | [1] -0.016 | [3] -0.032 | [8] -0.001 | [4] -0.019 | [5] -0.003 | IRAK-1-4 Inhibitor I 0.031

RBMX2 (UniProt Q9Y388)
inactive: erlotinib -0.087 | [6] -0.212 | [2] -0.116 | [7] 0.015 | [8] 0.106

RGS14 (UniProt O43566)
inactive: erlotinib 0.063 | [2] -0.109 | [1] -0.189 | [3] -0.09 | [4] -0.168 | [5] 0.138 | IRAK-1-4 Inhibitor I -0.006
